Assay results as given in PMC3723668.
No constants are given. Whether binding was seen depends on the method and setting. In cells and extracts the contact can be indirect. For part of these data: Tags and fused reporters may be left off the sequences shown.

Chains of the proteins cited; added tags and fusions are not shown. Residues count along the entry.
GST-N-terminal SH2 domain of PI3KR1 (residues 327-437) (P27986, residues 327-437): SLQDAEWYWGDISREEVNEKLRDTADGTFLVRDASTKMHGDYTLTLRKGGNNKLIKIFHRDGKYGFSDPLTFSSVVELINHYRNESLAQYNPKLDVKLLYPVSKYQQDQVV
GST-C-terminal SH2 domain of PI3KR1 (residues 617-724) (P27986, residues 617-724): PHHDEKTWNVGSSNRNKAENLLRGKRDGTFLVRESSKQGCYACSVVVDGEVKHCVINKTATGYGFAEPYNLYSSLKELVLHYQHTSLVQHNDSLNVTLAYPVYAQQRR
UniProt P00519, residues 121-225: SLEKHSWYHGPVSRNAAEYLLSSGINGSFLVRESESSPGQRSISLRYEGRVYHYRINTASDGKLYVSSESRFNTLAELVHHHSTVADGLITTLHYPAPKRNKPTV
UniProt P06241, residues 143-255: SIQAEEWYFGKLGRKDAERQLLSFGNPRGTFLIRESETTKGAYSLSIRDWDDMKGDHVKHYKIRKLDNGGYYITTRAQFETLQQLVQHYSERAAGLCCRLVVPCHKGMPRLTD
UniProt P62993, residues 57-157: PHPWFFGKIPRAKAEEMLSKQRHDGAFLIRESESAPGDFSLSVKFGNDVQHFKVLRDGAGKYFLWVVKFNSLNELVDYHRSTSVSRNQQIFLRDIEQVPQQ
UniProt Q15811, residues 1-1220: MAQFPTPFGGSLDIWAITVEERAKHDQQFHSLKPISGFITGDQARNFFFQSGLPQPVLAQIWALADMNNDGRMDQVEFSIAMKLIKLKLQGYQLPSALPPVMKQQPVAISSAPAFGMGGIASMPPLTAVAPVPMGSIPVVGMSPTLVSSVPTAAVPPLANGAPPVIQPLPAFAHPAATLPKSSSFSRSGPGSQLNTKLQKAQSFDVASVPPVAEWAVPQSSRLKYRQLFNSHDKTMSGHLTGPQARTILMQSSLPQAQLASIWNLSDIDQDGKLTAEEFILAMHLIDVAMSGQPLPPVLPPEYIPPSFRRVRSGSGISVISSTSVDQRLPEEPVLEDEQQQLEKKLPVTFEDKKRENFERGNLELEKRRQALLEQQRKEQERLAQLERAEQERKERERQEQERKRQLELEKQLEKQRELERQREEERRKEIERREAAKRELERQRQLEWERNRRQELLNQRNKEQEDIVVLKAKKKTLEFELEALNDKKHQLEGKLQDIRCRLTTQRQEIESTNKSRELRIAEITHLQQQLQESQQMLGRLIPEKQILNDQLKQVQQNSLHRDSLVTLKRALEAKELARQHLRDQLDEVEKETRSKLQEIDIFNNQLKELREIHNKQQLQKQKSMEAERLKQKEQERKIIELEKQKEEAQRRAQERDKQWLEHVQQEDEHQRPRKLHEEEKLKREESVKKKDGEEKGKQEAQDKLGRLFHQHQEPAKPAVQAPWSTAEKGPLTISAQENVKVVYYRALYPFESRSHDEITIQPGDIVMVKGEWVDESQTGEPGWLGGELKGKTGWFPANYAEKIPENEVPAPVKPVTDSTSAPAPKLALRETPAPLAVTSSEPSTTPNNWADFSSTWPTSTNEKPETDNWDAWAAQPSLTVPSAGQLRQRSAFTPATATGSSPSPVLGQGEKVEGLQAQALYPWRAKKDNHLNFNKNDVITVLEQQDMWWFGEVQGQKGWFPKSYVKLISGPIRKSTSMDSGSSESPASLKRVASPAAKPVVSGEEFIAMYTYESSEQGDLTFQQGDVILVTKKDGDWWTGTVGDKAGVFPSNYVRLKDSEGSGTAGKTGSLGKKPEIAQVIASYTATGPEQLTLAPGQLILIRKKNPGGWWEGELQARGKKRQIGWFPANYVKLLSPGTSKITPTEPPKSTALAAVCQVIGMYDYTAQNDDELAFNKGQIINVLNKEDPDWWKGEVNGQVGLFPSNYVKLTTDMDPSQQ

Experiments:
Experiment in all cases: pull-down; GST-SH2 domains on glutathione beads incubated with lysate of HeLa cells starved overnight and stimulated with 20 ng/ml EGF; Western blot; only the target purified
[1] = target: GST-C-terminal SH2 domain of PI3KR1 (residues 617-724) (UniProt P27986)
[2] = target: GST-N-terminal SH2 domain of PI3KR1 (residues 327-437) (UniProt P27986)
[3] = target: GST-SH2 domain of Abl1 (residues 140-244) (UniProt P00519)
[4] = target: T1, GST-SH2 domain of Crk (residues 5-127) (UniProt P46108)
T1 sequence: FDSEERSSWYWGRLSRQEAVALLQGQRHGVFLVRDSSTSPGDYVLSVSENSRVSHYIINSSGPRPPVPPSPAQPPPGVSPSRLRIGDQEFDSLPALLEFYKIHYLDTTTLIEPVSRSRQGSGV

[5] = target: GST-SH2 domain of Fgr (residues 136-251) (UniProt P09769)
[6] = target: GST-SH2 domain of Fyn (residues 143-255) (UniProt P06241)
[7] = target: GST-SH2 domain of Grb2 (residues 57-157) (UniProt P62993)
[8] = target: T2, GST-SH2 domain of Itk (residues 246-363) (UniProt Q08881)
T2 sequence: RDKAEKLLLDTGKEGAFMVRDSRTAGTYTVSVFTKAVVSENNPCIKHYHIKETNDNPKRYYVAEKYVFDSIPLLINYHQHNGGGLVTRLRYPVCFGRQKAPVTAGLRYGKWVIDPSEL

[9] = target: T3, GST-SH2 domains of PLCg1 (residues 542-766) (UniProt P19174)
T3 sequence: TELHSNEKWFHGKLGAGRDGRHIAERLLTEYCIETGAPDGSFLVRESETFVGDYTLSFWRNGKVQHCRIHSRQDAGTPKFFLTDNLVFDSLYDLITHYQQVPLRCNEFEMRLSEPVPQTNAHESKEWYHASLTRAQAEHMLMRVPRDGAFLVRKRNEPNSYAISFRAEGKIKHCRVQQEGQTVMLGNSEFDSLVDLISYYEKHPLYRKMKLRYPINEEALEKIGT

Measured: binding

intersectin 1 short isoform (ITSN1-S), endogenous in HeLa cells (from UniProt Q15811-2 1-1220)
no binding: all assays above
